For the assay, the target named is AT1/Rluc8 (human). Briefly: BRET saturation, HEK293FT cells. (In general: In BRET a luciferase serves as donor, and the signal depends on an acceptor being close.)

Amino acid sequences for entries named in this document (tags omitted). A change or cut given only in a name is not applied to a line headed by its entry.
UniProt Q15109: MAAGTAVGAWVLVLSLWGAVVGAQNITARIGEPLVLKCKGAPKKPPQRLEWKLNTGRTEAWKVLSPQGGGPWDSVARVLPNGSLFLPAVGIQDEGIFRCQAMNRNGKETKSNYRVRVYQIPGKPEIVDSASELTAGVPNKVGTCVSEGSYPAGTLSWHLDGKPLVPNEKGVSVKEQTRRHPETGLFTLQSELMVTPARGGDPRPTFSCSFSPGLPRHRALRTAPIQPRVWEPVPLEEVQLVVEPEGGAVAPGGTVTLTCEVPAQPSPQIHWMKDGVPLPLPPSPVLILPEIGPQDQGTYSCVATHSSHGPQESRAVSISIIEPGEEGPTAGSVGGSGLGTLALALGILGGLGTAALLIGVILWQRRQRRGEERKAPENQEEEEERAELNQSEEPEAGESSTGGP

No constants are given. Whether binding was seen depends on the method and setting. Some entries that bind do so weakly or less than the wild type.

On to “RAGE/Venus (from UniProt Q15109 23-404) (receptor)”, for which the binding result is given as “binds”.

For the origin of these results see patent publication US20200207836A1.
